At least one compound was matched to its structure with a doubt left.
Tested on: ARaiv1
Test: ARaiv1 mRNA expression and protein production in JDCaP-hr cells
Type: cell-based, human

With COC1=C2C[C@@H](C)C[C@H](OC)[C@H](O)[C@@H](C)/C=C(\C)[C@H](OC(N)=O)[C@@H](OC)/C=C\C=C(/C)C(=O)NC(=CC1=O)C2=O [geldanamycin] the “ARaiv1 mRNA” value was “remarkably reduced”, the ARaiv1 protein production was “remarkably reduced” and the “mRNA expression/protein production lowering action on ARaiv1 compared with full-length AR” value was “more preferential and remarkable”.
